# This is one part of the list. Small differences around the control level are noise.
# Sequences of proteins named here, by UniProt entry; tags and fusion partners are left off. A change or cut given only in a name is not applied to a line headed by its entry.
# UniProt Q96R06: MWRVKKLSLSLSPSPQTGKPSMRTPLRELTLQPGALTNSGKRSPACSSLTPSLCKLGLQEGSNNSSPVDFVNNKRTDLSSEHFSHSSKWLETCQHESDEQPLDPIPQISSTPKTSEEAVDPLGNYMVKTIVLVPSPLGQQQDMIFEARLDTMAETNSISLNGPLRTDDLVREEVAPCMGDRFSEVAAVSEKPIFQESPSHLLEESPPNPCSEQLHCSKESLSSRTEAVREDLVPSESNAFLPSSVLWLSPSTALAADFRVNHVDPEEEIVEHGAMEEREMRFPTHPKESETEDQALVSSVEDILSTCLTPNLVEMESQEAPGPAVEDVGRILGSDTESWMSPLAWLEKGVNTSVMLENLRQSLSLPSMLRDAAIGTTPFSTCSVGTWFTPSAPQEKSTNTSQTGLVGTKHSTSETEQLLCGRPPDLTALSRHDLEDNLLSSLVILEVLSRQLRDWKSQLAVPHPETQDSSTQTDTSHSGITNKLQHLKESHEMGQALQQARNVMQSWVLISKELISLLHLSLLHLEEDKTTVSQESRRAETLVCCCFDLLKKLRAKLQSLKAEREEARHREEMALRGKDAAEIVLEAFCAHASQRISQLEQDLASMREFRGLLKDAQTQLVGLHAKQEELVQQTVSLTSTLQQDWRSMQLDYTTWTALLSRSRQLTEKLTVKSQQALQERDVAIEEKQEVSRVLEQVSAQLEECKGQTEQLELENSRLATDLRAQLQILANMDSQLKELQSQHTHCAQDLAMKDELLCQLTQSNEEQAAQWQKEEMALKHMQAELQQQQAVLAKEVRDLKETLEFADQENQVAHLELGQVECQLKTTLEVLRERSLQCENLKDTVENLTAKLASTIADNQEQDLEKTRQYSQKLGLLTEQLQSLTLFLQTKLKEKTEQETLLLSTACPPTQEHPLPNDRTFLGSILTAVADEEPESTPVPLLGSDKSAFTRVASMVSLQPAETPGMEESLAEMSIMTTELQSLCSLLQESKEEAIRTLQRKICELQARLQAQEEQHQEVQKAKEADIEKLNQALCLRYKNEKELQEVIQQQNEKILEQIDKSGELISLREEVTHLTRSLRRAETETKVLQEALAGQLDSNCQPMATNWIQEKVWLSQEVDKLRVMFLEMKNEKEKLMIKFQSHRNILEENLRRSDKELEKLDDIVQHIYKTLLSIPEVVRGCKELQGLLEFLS
# UniProt Q96I76: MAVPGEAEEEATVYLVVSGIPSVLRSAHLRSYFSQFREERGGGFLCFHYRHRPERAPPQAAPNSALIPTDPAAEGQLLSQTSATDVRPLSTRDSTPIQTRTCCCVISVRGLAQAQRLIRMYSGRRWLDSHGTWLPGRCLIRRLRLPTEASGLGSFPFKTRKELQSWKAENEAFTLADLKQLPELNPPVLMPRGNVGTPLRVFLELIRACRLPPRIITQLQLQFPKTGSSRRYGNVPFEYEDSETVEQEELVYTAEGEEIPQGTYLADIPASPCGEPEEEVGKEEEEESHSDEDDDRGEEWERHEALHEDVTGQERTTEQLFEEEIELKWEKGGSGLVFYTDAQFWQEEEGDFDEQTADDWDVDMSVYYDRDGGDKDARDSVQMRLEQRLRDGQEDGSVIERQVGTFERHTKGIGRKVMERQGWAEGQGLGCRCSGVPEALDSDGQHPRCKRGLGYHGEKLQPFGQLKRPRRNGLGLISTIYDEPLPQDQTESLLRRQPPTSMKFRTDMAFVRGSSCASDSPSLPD
# UniProt Q99426: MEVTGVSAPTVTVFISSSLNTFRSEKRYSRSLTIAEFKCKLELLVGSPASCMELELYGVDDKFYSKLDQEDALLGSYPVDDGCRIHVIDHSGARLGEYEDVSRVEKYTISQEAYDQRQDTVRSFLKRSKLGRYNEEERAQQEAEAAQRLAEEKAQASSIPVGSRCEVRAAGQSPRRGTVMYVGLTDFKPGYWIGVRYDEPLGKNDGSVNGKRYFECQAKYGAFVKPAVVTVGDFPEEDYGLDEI
# UniProt Q96T37: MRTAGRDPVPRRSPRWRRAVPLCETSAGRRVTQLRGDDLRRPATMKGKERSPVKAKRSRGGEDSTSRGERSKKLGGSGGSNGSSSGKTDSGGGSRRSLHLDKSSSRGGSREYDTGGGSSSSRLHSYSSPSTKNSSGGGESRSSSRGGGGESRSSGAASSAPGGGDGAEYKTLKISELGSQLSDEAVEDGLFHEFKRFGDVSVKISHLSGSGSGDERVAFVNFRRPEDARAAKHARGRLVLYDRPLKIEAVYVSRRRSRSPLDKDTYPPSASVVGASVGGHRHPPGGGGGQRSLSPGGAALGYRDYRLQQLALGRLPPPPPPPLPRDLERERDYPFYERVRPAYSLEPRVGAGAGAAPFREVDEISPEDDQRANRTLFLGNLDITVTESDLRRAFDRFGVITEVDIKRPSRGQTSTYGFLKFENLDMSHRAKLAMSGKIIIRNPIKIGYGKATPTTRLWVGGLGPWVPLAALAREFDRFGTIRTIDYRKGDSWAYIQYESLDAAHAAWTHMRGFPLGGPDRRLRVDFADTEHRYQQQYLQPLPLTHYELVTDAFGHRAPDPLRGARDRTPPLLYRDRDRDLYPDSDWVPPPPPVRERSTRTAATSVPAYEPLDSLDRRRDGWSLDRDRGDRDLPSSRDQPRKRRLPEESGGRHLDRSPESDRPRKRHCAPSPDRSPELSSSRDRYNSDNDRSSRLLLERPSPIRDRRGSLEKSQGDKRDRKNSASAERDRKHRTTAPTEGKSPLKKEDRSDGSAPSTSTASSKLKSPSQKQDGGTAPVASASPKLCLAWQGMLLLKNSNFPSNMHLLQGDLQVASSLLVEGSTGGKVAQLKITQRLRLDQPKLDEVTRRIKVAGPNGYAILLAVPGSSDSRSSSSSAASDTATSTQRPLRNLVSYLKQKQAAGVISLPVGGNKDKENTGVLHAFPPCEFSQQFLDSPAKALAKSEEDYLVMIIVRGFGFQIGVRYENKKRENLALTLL
# UniProt Q96S65: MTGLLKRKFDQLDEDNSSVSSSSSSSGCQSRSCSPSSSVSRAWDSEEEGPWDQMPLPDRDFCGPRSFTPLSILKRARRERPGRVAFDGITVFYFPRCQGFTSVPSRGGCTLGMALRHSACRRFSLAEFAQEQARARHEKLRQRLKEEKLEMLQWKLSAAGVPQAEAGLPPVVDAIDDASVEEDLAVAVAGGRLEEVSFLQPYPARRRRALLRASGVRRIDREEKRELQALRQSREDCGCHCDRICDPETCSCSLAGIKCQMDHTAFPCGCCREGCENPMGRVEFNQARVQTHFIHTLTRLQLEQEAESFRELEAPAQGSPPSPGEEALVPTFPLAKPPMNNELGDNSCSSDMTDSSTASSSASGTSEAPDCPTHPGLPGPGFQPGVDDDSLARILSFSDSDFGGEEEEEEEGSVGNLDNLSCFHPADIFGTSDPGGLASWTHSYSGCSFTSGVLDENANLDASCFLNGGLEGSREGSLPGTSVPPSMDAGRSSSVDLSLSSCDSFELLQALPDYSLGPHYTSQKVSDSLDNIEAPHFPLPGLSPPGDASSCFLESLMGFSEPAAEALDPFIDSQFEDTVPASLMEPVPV
# UniProt Q96MS0: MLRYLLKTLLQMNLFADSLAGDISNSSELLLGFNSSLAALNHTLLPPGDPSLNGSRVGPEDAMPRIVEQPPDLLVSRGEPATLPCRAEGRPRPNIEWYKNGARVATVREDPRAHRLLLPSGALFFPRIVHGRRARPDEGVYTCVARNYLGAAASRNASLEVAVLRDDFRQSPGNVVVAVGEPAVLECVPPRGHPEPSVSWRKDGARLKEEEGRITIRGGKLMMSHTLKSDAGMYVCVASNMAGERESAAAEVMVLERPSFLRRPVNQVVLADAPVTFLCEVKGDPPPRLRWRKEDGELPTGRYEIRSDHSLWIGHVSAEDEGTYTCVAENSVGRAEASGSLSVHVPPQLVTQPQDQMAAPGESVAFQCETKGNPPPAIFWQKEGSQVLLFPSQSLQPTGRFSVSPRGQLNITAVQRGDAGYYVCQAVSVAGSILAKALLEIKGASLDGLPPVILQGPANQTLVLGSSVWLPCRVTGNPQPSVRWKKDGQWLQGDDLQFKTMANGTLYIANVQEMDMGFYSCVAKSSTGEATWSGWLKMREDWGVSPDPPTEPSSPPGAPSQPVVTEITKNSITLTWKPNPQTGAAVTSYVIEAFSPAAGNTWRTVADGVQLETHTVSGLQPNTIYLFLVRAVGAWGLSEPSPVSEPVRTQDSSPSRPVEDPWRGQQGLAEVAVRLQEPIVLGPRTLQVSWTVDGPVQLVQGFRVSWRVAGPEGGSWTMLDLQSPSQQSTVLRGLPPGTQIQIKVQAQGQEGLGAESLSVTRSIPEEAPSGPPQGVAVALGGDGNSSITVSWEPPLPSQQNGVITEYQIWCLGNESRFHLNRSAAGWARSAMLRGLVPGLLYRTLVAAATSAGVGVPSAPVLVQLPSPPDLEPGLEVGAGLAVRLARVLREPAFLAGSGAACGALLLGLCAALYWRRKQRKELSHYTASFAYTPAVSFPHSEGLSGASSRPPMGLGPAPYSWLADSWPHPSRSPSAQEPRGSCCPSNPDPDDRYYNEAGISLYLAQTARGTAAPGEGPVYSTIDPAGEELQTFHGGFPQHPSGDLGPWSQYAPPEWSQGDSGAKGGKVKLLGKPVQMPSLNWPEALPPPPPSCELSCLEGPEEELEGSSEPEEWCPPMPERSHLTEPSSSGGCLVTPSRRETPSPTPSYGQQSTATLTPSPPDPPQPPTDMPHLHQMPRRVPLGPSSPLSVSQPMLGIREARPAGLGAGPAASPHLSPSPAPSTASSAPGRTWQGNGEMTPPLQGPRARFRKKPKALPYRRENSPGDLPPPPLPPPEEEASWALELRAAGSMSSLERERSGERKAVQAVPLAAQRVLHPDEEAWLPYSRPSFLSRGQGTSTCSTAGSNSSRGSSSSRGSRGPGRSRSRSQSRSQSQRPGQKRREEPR
# UniProt Q96PC5: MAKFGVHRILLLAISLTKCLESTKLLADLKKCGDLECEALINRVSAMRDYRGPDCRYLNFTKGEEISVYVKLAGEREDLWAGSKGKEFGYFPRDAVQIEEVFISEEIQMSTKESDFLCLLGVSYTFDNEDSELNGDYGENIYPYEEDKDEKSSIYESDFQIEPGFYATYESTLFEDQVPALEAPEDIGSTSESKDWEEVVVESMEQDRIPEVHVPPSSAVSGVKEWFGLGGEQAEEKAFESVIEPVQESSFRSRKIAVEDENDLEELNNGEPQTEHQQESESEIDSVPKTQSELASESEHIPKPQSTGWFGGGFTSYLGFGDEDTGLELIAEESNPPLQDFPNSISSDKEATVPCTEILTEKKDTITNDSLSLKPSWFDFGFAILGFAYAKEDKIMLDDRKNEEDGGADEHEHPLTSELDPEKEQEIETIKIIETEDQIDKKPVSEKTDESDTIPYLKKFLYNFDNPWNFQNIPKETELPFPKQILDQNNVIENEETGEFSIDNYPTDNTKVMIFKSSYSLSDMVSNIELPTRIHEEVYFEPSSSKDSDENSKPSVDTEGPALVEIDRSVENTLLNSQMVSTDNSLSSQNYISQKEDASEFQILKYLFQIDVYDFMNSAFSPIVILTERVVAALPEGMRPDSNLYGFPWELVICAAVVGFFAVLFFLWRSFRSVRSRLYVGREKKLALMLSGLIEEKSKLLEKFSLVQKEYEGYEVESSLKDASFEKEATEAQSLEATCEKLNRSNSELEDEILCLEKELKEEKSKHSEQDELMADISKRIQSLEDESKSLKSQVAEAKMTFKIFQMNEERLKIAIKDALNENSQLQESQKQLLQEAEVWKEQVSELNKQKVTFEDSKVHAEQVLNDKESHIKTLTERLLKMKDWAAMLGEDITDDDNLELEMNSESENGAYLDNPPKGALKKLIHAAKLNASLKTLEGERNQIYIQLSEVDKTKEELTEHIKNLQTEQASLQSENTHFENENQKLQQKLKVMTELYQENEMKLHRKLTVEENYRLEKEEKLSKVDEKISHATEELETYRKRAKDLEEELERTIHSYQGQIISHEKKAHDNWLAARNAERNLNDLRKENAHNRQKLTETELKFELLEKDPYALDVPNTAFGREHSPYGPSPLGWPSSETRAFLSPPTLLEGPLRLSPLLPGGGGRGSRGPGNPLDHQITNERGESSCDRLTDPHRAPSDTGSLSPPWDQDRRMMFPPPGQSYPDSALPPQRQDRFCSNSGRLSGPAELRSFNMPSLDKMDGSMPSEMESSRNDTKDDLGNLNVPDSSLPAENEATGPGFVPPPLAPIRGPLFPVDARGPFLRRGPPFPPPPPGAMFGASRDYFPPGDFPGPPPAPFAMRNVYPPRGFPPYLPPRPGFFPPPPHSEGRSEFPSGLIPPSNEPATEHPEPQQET
# Compound: CN[C@@H]1C[C@H]2O[C@@](C)([C@@H]1OC)n1c3ccccc3c3c4c(c5c6ccccc6n2c5c31)C(=O)NC4 [staurosporine]
# Assay: log2 fold change of tryptic peptide abundance, ligand vs vehicle (limited proteolysis) (log2 ratio); higher = more trypsin-susceptible (destabilized)
# Settings: ligand concentration: 20 uM; sample: K562 cleared lysate; digestion: 4 min, 22 C (HT-PELSA RT4min, Orbitrap Astral)
row,Target,log2 fold change
1,"EXOC2 (peptide sequence: WILQLMHSCKEGYVK, peptide start residue: 380) (UniProt Q96KP1)",0.457
2,"NARS2 (peptide sequence: TNVLGSILR, peptide start residue: 149) (UniProt Q96I59)",0.17
3,"KCTD15 (peptide sequence: VTPDLGER, peptide start residue: 173) (UniProt Q96SI1)",0.241
4,"MARK4 (peptide sequence: HSDFCGPSPAPLHPK, peptide start residue: 422) (UniProt Q96L34)",0.509
5,"SPAG5 (peptide sequence: AKEADIEKLNQALCLR, peptide start residue: 1022) (UniProt Q96R06)",-1.34
6,"GPATCH3 (peptide sequence: HEALHEDVTGQER, peptide start residue: 303) (UniProt Q96I76)",0.42
7,"TBCB (peptide sequence: IHVIDHSGAR, peptide start residue: 85) (UniProt Q99426)",1.11
8,"RBM15 (peptide sequence: TAATSVPAYEPLDSLDR, peptide start residue: 600) (UniProt Q96T37)",-0.371
9,"UniProt Q96S65 (peptide sequence: SFTPLSILKR, peptide start residue: 66)",0.704
10,"UniProt Q96MS0 (peptide sequence: GLVPGLLYR, peptide start residue: 834)",0.0985
11,"UniProt Q96PC5 (peptide sequence: VHAEQVLNDKESHIK, peptide start residue: 859)",-0.245

# Some of the entries so far, bar-delimited.
row | Target | log2 fold change
4 | MARK4 (peptide sequence: HSDFCGPSPAPLHPK, peptide start residue: 422) (UniProt Q96L34) | 0.509
8 | RBM15 (peptide sequence: TAATSVPAYEPLDSLDR, peptide start residue: 600) (UniProt Q96T37) | -0.371

# Source: the supplement of paper PMC12819154, “High-throughput peptide-centric local stability assay extends protein–ligand identification to membrane proteins, tissues and bacteria” (Nature Structural & Molecular Biology, 2025)
